# Data published in PubChem BioAssay AID493014 (National Center for Advancing Translational Sciences (NCATS), 2011).
# The other results are listed elsewhere or left out. These are further read-outs of the screen, such as a control signal, another cell line or another target. No call is given for them. Most of these compounds were active or inconclusive in the main read-out, so they are no random draw. Words in brackets tell the shape of the fitted curve; partial curves, single points and poor fits give uncertain potencies.
# Experiment: qHTS Assay to Find Inhibitors of Chronic Active B-Cell Receptor Signaling
# Conditions: ABC-DLBCL IkBa-CBG/CBR reporter, luminescence ratio (green luciferase fused to IkBa over red control in TMD8 lymphoma cells), 4 h
# How it was run: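 Concentration-response series (up to 46 uM) were applied to TMD8 dual-reporter cells for 4 h at 37C with doxycycline. Green/red ratio, after filter-overlap correction, defined %Activity; red signal alone was normalised to basal cells and zero luminescence.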
# [1] = measured here: CBR red luminescence, cell number
# [2] = measured here: IkBa-CBG green luminescence
SMILES,AC50 [1],AC50 [2]
COc1ccc(C(=O)N/N=C/c2cc(Br)ccc2O)cc1OC,"10 µM [falling, partial curve, poor fit]",–
CN(C)S(=O)(=O)c1cccc(NC(=O)COC(=O)c2cn(-c3ccccc3)nc2-c2ccccc2)c1,–,"6.51 µM [rising, full curve, poor fit]"
Clc1ccc(Cn2nnc(-c3ccc(CN4CCOCC4)cc3)n2)cc1,"2.06 µM [rising, single point]",–
COc1cc([N+](=O)[O-])cc(/C=N/NC(=O)c2cncc(Br)c2)c1O,"11.2 µM [falling, partial curve, poor fit]",–
COc1ccc2oc(C(=O)c3ccccc3)c(NC(=O)CN3CCN(C)CC3)c2c1,"0.126 µM [falling, full curve]",–
Cc1[nH]c(=O)[nH]c(=O)c1S(=O)(=O)Nc1ccc(Cl)c([N+](=O)[O-])c1,"3.55 µM [rising, single point]",–
Cc1ccc(CN(C)C(=O)CN2C(=O)NC(c3ccccc3)(c3ccccc3)C2=O)c(C)c1,"23.1 µM [falling, single point]",–
CCOc1ccc(CN(C)CC(=O)NCc2ccc(F)cc2)cc1,"0.501 µM [falling, full curve, poor fit]",–
Cc1nnc2ccc(N3CCN(c4ccccn4)CC3)nn12,"6.51 µM [rising, single point]",–
COc1ccc(-c2nnc(COc3ccc4ccccc4c3)o2)cc1OC,"29.1 µM [falling, single point]",–
O=C(CNC(=O)c1sc2ccccc2c1Cl)NCc1cccc(C(F)(F)F)c1,"29.1 µM [rising, partial curve, poor fit]",–
CC1=C(C(=O)OCC(C)C)[C@]23C(=O)c4ccccc4[C@@]2(O1)OC(N)=C3C#N,"6.51 µM [rising, full curve, poor fit]",–
c1ccc(-c2nnc3sc(-c4cc5ccccc5o4)nn23)cc1,"1.16 µM [rising, full curve, poor fit]",–
C#CCN1C(=O)S/C(=C\c2ccc(-c3ccc(C(=O)O)cc3C)o2)C1=O,"15.8 µM [falling, single point]",–
COC(=O)c1c(-c2ccc(S(C)(=O)=O)cc2)sc2ccc(OC)cc12,"14.6 µM [rising, partial curve, poor fit]",–
CCC(C)(C)NC(=O)C(c1cccn1C)N(C(=O)Cn1nnc2ccccc21)c1ccc(NC(C)=O)cc1 (centres undefined),"8.91 µM [rising, partial curve, poor fit]",–
Oc1ccc(/C=N/N=C/c2ccc(O)c(O)c2)cc1O,"15.8 µM [falling, single point]",–
Fc1ccc(-n2cc(-c3ccccc3)c3c(NCCc4ccccc4)ncnc32)cc1,"10 µM [rising, partial curve]",–
NC(=O)Cc1nc(-c2ccc(F)cc2)cs1,"35.5 µM [rising, single point]",–
COc1cccc(N2CCN(C(=O)CN(c3cc(C)cc(C)c3)S(=O)(=O)c3c(C)noc3C)CC2)c1,"35.5 µM [falling, single point]",–
COc1ccc(C(=O)Nc2ccccc2C(=O)N/N=C/c2ccc(O)c(OC)c2)cc1,"0.282 µM [falling, full curve]",–

SMILES,AC50 [1],AC50 [2]
CCOC(=O)c1cccc(NC(=S)N2CCN(c3ncc4c(=O)c(C(=O)O)cn(CC)c4n3)CC2)c1,"35.5 µM [rising, single point]",–
O=C(Nc1ccc(NC(=O)c2ccncc2)cc1)c1ccncc1,"3.98 µM [rising, full curve, poor fit]",–
CC[n+]1c(/C=C(\C)SC)sc2ccccc21,"35.5 µM [falling, single point]",–
CN(C)CCn1c(=O)n(Cc2ccco2)c(=O)c2c3c(sc21)CCCCC3,"0.708 µM [falling, full curve, poor fit]",–
O=C(CSc1nnc(-c2ccncc2)n1-c1ccccc1)N1CCN(c2ccc(Cl)cc2)CC1,"0.731 µM [rising, full curve, poor fit]",–
COc1ccc(OC(=O)c2cccc([N+](=O)[O-])c2)c(C(=O)/C=C/c2cccs2)c1,"18.4 µM [falling, single point]",–
O=C(Nc1ccncc1)c1cccs1,"15.8 µM [falling, single point]",–
C/C(CCC(C)C)=N\NC(=S)NCc1ccccc1,–,"20 µM [falling, single point]"
CC(=O)Nc1nc(COc2ccc3ccccc3c2)cs1,"18.4 µM [falling, partial curve, poor fit]",–
NC(=S)Nc1cc(Cl)cc(Cl)c1,"3.55 µM [rising, full curve, poor fit]",–
NC(=O)C1CCN(c2ncnc3c2c(-c2ccccc2)cn3-c2ccccc2)CC1,"0.82 µM [rising, full curve, poor fit]",–
Cc1nc(NC(=O)C2CC2)sc1C(=O)Nc1cccc(Cl)c1,"20 µM [falling, single point]",–
CN(C(=O)c1ccc2c(Cl)c3c(nc2c1)CCC3)c1ccccc1,"20.6 µM [falling, single point]",–
O=C(O)c1ccc(S(=O)(=O)c2ccc3c(c2)C(=O)N(NC(=O)c2ccccc2)C3=O)cc1,"4.47 µM [falling, partial curve]",–
Cc1nc2ccccc2n2c(-c3ccccc3)c3c(=O)n(C)c(=O)n(C)c3c12,"0.164 µM [rising, full curve, poor fit]",–
N=C1S/C(=C\c2cn[nH]c2-c2ccc(F)cc2)C(=O)N1c1ccccc1F,"9.2 µM [falling, partial curve, poor fit]",–
Cc1c(C(=O)NCc2ccccn2)sc2nc(-c3ccc(F)cc3)cn12,"4.11 µM [rising, full curve, poor fit]",–
O=C1CC(c2ccc(F)cc2)Sc2nc(C34CC5CC(CC(C5)C3)C4)nn21 (centres undefined),"5.17 µM [falling, full curve, poor fit]",–
CC1CCCCN1C(=O)CSc1nc(N)cc(=O)[nH]1 (centres undefined),"0.184 µM [falling, full curve, poor fit]",–
CC(=O)N1CCN(C(=O)/C(C#N)=C/c2ccc3c(c2)OCO3)CC1,"7.08 µM [falling, partial curve, poor fit]",–
O=C(O)CCC(=O)CCC(=O)c1ccc(Cl)cc1,"25.9 µM [falling, single point]",–

SMILES,AC50 [1],AC50 [2]
CCOC(=O)/C(C#N)=C/c1c(N2CCN(c3ccc(OC)cc3)CC2)nc2c(C)cccn2c1=O,"6.31 µM [falling, full curve, poor fit]",–
Cc1ccc(N2CC(C(=O)OCc3ccccc3)CC2=O)cc1 (centres undefined),"2.82 µM [rising, partial curve, poor fit]",–
CCOc1ccc(CCNC(=O)CN(C)S(=O)(=O)c2cccc3nsnc23)cc1OCC,"1.78 µM [rising, full curve, poor fit]",–
Cn1c(=O)c2c(nc(SCCOc3ccc4ccc(=O)oc4c3)n2C)n(C)c1=O,"5.17 µM [falling, partial curve, poor fit]",–
CCc1c(C)c(C#N)c2[nH]c3ccccc3n2c1=S,"5.62 µM [falling, full curve, poor fit]","10 µM [rising, partial curve, poor fit]"
CCOC(=O)c1c(/C=N/Nc2ccccc2)c2sc(C)cc2n1C,"6.51 µM [rising, partial curve, poor fit]","18.4 µM [falling, partial curve]"
Cc1sc2ncnc(N3CCC(C(=O)NNC(=O)c4ccccc4Cl)CC3)c2c1C,"11.2 µM [falling, partial curve]",–
COc1ccc(NC(=O)c2ccc(COc3ccccc3Br)o2)cc1OC,"15.8 µM [falling, partial curve, poor fit]",–
CN1CCC(CN)(N2CCN(c3ccccc3)CC2)CC1,"0.0891 µM [rising, full curve, poor fit]",–
Cc1cc2cc(CNC(=O)C3CCCC3)ccc2n1C,"3.98 µM [rising, partial curve]",–
Cc1ccc(C(=O)NNC(=S)NC(=O)c2ccc(Cl)cc2Cl)cc1,"13 µM [falling, partial curve, poor fit]",–
CCOC(=O)c1c(NC(=O)COC(=O)Cc2n[nH]c(=O)c3ccccc23)sc(C(=O)N(C)C)c1C,"1.03 µM [rising, full curve, poor fit]",–
NNC(=O)c1cc2c(N3CCC(Cc4ccccc4)CC3)ncnc2s1,"35.5 µM [falling, single point]",–
CCOC(=O)Cc1nnc(Nc2cc(C)ccc2C)c2ccccc12,"7.94 µM [falling, partial curve, poor fit]",–
Cc1ccccc1OCC(=O)O/N=C(\N)Cc1cccs1,"0.631 µM [rising, full curve, poor fit]",–
O=C(Cc1ccc(Cl)c(Cl)c1)Nc1ccccc1N1CCOCC1,"35.5 µM [falling, single point]",–
CCN(CC)CC(=O)Nc1ccc(/C(C)=N/NC2=NCCN2)cc1,"11.2 µM [falling, partial curve, poor fit]",–
Cc1ccc(C(C)C)c(OCCCCN2CCNCC2)c1,"35.5 µM [falling, single point]",–
Cc1sc2nc(C3CC3)nc(N3CCN(C(=O)c4ccc(Cl)cc4)CC3)c2c1C,"12.6 µM [falling, partial curve]",–
O=C1Nc2ccccc2C1C(C[N+](=O)[O-])c1ccccn1 (centres undefined),"14.1 µM [falling, partial curve, poor fit]",–

# 5 records picked at random from the list so far, as already listed:
SMILES,AC50 [1],AC50 [2]
CCOC(=O)/C(C#N)=C/c1c(N2CCN(c3ccc(OC)cc3)CC2)nc2c(C)cccn2c1=O,"6.31 µM [falling, full curve, poor fit]",–
c1ccc(-c2nnc3sc(-c4cc5ccccc5o4)nn23)cc1,"1.16 µM [rising, full curve, poor fit]",–
O=C(Cc1ccc(Cl)c(Cl)c1)Nc1ccccc1N1CCOCC1,"35.5 µM [falling, single point]",–
CC[n+]1c(/C=C(\C)SC)sc2ccccc21,"35.5 µM [falling, single point]",–
Cc1nnc2ccc(N3CCN(c4ccccn4)CC3)nn12,"6.51 µM [rising, single point]",–
